Changes are numbered by the printed parent chain. Names may count otherwise. Results are given in words; binding and its absence hold for the method and conditions named. Some binding calls cover weakened binding; strength is not graded here. For part of these data: Tags and fused reporters may be left off the sequences shown.
T1: Nqo12 D648N (Paracoccus denitrificans) (UniProt P29924)
T1 sequence: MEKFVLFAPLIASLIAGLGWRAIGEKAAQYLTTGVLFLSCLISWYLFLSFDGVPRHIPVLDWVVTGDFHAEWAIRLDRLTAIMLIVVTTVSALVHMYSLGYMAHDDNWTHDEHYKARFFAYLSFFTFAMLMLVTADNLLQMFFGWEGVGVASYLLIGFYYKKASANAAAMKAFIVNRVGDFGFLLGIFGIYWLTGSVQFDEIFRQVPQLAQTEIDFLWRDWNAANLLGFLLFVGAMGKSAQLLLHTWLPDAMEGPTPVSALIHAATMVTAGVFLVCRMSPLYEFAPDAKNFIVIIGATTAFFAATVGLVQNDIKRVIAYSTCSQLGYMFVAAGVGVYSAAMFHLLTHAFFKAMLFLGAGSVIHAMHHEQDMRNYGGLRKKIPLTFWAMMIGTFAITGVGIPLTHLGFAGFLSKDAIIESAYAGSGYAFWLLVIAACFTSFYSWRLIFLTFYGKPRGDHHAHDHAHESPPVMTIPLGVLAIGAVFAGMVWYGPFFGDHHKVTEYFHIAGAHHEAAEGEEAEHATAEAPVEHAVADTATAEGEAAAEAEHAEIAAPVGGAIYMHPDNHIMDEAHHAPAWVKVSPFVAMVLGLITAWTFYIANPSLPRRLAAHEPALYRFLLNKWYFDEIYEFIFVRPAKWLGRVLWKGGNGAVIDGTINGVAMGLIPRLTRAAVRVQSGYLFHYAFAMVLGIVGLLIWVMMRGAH

T2: Nqo5 subunit of Paracoccus denitrificans complex I with a His6 tag (strain Pd-Nqo5^His6) (Paracoccus denitrificans) (UniProt P29917)
T2 sequence: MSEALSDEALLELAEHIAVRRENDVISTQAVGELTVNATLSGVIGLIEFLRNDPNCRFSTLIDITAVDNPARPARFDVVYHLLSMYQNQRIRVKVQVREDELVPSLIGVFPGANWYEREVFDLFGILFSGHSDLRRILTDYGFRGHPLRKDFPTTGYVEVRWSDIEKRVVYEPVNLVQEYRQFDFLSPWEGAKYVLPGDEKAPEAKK

T3: Nqo12 subunit of Paracoccus denitrificans complex I, wild type (Paracoccus denitrificans) (UniProt P29924)
T3 sequence: T1 sequence with N648D

B1: Nqo13 subunit of Paracoccus denitrificans complex I, wild type (protein, UniProt P29925 1-513)
chain: MTNLLSIITFLPIVAAIIMALFLRGQDEAAARNAKWLALLTTTATFVISLFVLFRFDPANTGFQFVEDHAWIMGVCYKMGVDGISVLFVLLTTFMMPLTILSTWQVQDKVKEYMIAFLVLEGLMIGVFTALDLVLFYLFFEAGLIPMFLIIGIWGGKDRIYASFKFFLYTFLGSVLMLVAMIAMYRMAGTTDIPTLLTFDFPSENFRLLGMTVVGGMQMLLFLAFFASFAVKMPMWPVHTWLPDAHVQAPTAGSVLLAAVLLKMGGYGFLRFSLPMFPVASGVAQPYVFWLSAIAIVYTSLVALAQSDMKKVIAYSSVAHMGYVTMGVFAANQIGVDGAIFQMLSHGFISGALFLCVGVIYDRMHTREIDAYGGLVNRMPAYAAVFMFFTMANVGLPGTSGFVGEFLTLMGVFRVDTWVALVATSGVILSAAYALWLYRRVTLGQLIKESLKSITDMTPRERWVFIPLIAMTLILGVYPRLVTDVTGPAVAALVQDYNQSQPAAPVATAQASH
B2: Nqo14 subunit of Paracoccus denitrificans complex I (protein, UniProt P29926 1-499)
chain: MTSLDFSTILPEVVLAGYALAALMAGAYLGKDRLARTLLWVTVAAFLVVAAMVGLGNHVDGAAFHGMFIDDGFSRFAKVVTLVAAAGVLAMSADYMQRRNMLRFEFPIIVALAVLGMMFMVSAGDLLTLYMGLELQSLALYVVAAMRRDSVRSSEAGLKYFVLGSLSSGLLLYGASLVYGFAGTTGFEGIISTIEAGHLSLGVLFGLVFMLVGLSFKVSAVPFHMWTPDVYEGSPTPVTAFFATAPKVAAMALIARLVFDAFGHVIGDWSQIVAALAVMSMFLGSIAGIGQTNIKRLMAYSSIAHMGFALVGLAAGTAIGVQNMLLYMTIYAVMNIGTFAFILSMERDGVPVTDLAALNRFAWTDPVKALAMLVLMFSLAGVPPTLGFFAKFGVLTAAVDAGMGWLAVLGVIASVIGAFYYLRIVYYMYFGGESEGMTSRMGAVQYLALMVPALAMLVGAISMFGVDSAAGRAAETLVGPVAAIEQPAEAAQAEPVQGE
B3: Nqo12 D648N (protein, UniProt P29924 1-703)
chain: T1 sequence
B4: Nqo12 subunit of Paracoccus denitrificans complex I, wild type (protein, UniProt P29924 1-703)
chain: T1 sequence with N648D
B5: Nqo13 E405Q (protein, UniProt P29925 1-513)
chain: B1 chain with E405Q
B6: Nqo13 H346Q (protein, UniProt P29925 1-513)
chain: B1 chain with H346Q
B7: Nqo13 A314L (protein, UniProt P29925 1-513)
chain: B1 chain with A314L
B8: Nqo13 H239Q (protein, UniProt P29925 1-513)
chain: B1 chain with H239Q
B9: Nqo13 H246F (protein, UniProt P29925 1-513)
chain: B1 chain with H246F
B10: Nqo13 L242A (protein, UniProt P29925 1-513)
chain: B1 chain with L242A
B11: Nqo13 Y315F (protein, UniProt P29925 1-513)
chain: B1 chain with Y315F
B12: Nqo13 W241F (protein, UniProt P29925 1-513)
chain: B1 chain with W241F
B13: Nqo13 H320L (protein, UniProt P29925 1-513)
chain: B1 chain with H320L
B14: Nqo13 K263Q (protein, UniProt P29925 1-513)
chain: B1 chain with K263Q
B15: Nqo13 E141Q (protein, UniProt P29925 1-513)
chain: B1 chain with E141Q
B16: Nqo13 K232Q (protein, UniProt P29925 1-513)
chain: B1 chain with K232Q
B17: Nqo13 R367H (protein, UniProt P29925 1-513)
chain: B1 chain with R367H

The binders below were run against T1, Nqo12 D648N (Paracoccus denitrificans) (assay: co-purification of the complex (purified by its tag, SEC, SDS-PAGE); complex I purified from membranes of the P. denitrificans Pd-Nqo5^His6 strain as in ref. 24; size-exclusion elution profile compared with wild type; 10 ug of purified complex on SDS-PAGE, Coomassie R250).
For B1, the binding was “binds”.

Each binder was assayed against T2, Nqo5 subunit of Paracoccus denitrificans complex I with a His6 tag (strain Pd-Nqo5^His6) (Paracoccus denitrificans) in the same assay as above.
With B2 the binding was “binds”. B3 was tested, and the binding was “binds”. B4 was tested, and the binding was “binds”. In the case of B1, the binding is reported as “binds”. B5 was tested, and the binding was “binds”. B6 was tested, and the binding was “binds”. B7 was tested, and the binding was “binds”. B8 was tested, and the binding was “binds”. With B9 the binding was “binds”. In the case of B10, the binding is reported as “binds”. With B11 the binding was “binds”. With B12 the binding was “binds”. In the case of B13, the binding is reported as “binds”. In the case of B14, the binding is reported as “binds”. B15 was tested, and the binding was “binds”. For B16, the binding was “binds”. For B17, the binding was “binds”.

These binders were tested against T3, Nqo12 subunit of Paracoccus denitrificans complex I, wild type (Paracoccus denitrificans) in the same assay as above.
B2 was tested, and the binding was “binds”. For B1, the binding was “binds”. In the case of B5, the binding is reported as “binds”. In the case of B6, the binding is reported as “binds”. In the case of B7, the binding is reported as “binds”. B8 was tested, and the binding was “binds”. With B9 the binding was “binds”. With B10 the binding was “binds”. In the case of B11, the binding is reported as “binds”. In the case of B12, the binding is reported as “binds”. In the case of B13, the binding is reported as “binds”. B14 was tested, and the binding was “binds”. With B15 the binding was “binds”. With B16 the binding was “binds”. In the case of B17, the binding is reported as “binds”.

Reference: paper PMC9802314
